Percent effect of library compounds

The values are deposited in ChEMBL (CHEMBL3988442, “University of Dundee, Small-Polar-MMV Screening Library” (2021)).

The filed quantity is “Percent Effect” (%). How 0% and 100% were set is not recorded. Most values in the screen are low, and negative values occur. The compounds are a random part of those screened.

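Whole-cell growth test on Mycobacterium tuberculosis, read after 4 days in a medium based on cholesterol and the lipid DPPC; the read-out is not stated. Compounds at 500 µM. The record gives no direction; compounds that gave an IC50 in retests scored well above the rest, so higher reads as more growth inhibition. Size under these conditions: about 18,000 compounds, about 900 of them at 50% or above in at least one test.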

| structure | effect |
|---|---|
| `CC(=O)c1ccc(NC(=O)CCc2cccs2)nc1` | -3.633 |
| `CC1(C)CN(C(=O)c2cccnc2)CC2(CCCC2)O1` | -30.7 |
| `O=C(Cc1c(F)cccc1F)Nc1cnccc1CO` | 3.235 |
| `NC(=O)CNC(=O)c1cc(Cl)ccc1OC1CCCC1` | -4.744 |
| `NS(=O)(=O)CC1CCN(Cc2nc(C3CC3)no2)CC1` | -1.384 |
| `CCN1CCN(CC(C)CNc2ncccc2F)CC1` (stereo unspecified) | -14.37 |
| `O=C(CO)N1C[C@@H](CN2CCCCCC2)[C@@H](CO)C1` | -40.67 |
| `Cc1cc(NC(=O)CCN(C)CC2(O)CCCC2)no1` | -5.047 |
| `O=C(NC[C@H]1CCc2ccccc2O1)[C@H]1CCCN1` | 34.47 |
| `CC(=O)Nc1cccc(CN(C)S(=O)(=O)C(C)C)c1` | -9.144 |
| `CCn1cc(Br)c(=O)c(NC(=O)[C@@H]2CCCO2)c1` | 13.1 |
| `O=C(NC1CCc2ccccc21)c1cc[nH]n1` (stereo unspecified) | 6.017 |
| `NS(=O)(=O)c1ccc2c(c1)N(CC(=O)NC1CC1)CC2` | 9.307 |
| `O=C1CCN(c2nc3ccccc3o2)CC1` | 13.18 |
| `COCC(=O)N1CCCN(C(=O)CN(C)C)CC1` | 0.8947 |
| `Cc1cc(NC(=O)CN(C)CC(=O)NC2CC2)on1` | -6.944 |
| `CN(Cc1ccccc1)C1(CN)CCC1` | 8.622 |
| `O=S(=O)(CCN1CCOCC(O)C1)c1ccccc1` (stereo unspecified) | 30.65 |
| `Cc1ccc(F)c(OCC(=O)N[C@@H](C)C(N)=O)c1` | 11.16 |
| `CCS(=O)(=O)N1CCC(NC(=O)c2ccc(Cl)o2)CC1` | -5.68 |
| `CSc1ccc(C(=O)NC(C)Cn2cncn2)cc1` (stereo unspecified) | -6.671 |
| `CCc1ccc(CN2C[C@@H]3CCC[C@H](C2)C(=O)N3)nc1` | -10.86 |
| `NCCc1ccc(N2CCOCC2)c(F)c1` | 30.3 |
| `CC(C)CSCCSc1nnc(N)[nH]1` | 44.98 |
| `CN(C)C(=O)c1cccnc1SC(F)F` | 6.752 |
| `COc1ccnc(C(=O)N(C)C(C)c2cccnc2)c1` (stereo unspecified) | -5.149 |
| `CCN(Cc1ccc(Cl)c(Cl)c1)C(=O)CCS(C)(=O)=O` | 60.35 |
| `CCCc1nc(C(=O)N2CCC3(CCCNC3)C2)cs1` (stereo unspecified) | 1.607 |
| `CNCC(=O)NC(C)c1ccc(F)c(OC)c1` (stereo unspecified) | -2.4 |
| `CNC(=O)[C@@H](C)Nc1nc(-c2ccccc2)ns1` | 7.973 |
| `CNC(=O)NC(=O)CN(C)CCCOc1ccccc1` | -15.18 |
| `CC(=O)N1CCN(C(=O)c2cncnc2C)CC(O)C1` (stereo unspecified) | -5.231 |
| `CC1CCN(S(=O)(=O)N2CCN(S(C)(=O)=O)CC2)CC1` | 25.09 |
| `CC(=O)Nc1ccc(-n2nc(C)cc2C)nc1` | 39.45 |
| `CSCC(=O)N(CCC#N)Cc1cccnc1` | 9.035 |
| `COCC1CN(c2ccccn2)CCO1` (stereo unspecified) | 6.145 |
| `CCCN(C(=O)c1ccc(F)cc1)C1CCS(=O)(=O)C1` (stereo unspecified) | 0.4317 |
| `O=C(c1cc(-n2cnnn2)ccc1Br)N1CCOCC1` | 6.08 |
| `CCS(=O)(=O)c1ccc(C(C)N)cc1` (stereo unspecified) | -2.712 |
| `COc1cccc(CNC2CCN(C(C)=O)CC2)c1` | -1.584 |
| `O=C(NCCc1ncc[nH]1)c1cccnc1SC(F)F` | -9.779 |
| `CN(Cc1ccc(Oc2ccccc2)cc1)C(=O)CN` | 99.1 |
| `NCCN1CCC(C(N)=O)CC1` | -1.85 |
| `COc1cc2c(nn1)CCNC2` | -55.61 |
| `CN(Cc1ccco1)C(=O)CN1CCc2sccc2C1` | 69.22 |
| `OCCC1(NCc2ccc(O)c(Cl)c2)CCOCC1` | 13.26 |
| `O=C(N[C@@H]1CNC[C@H]1CO)C1CCC1` | -7.122 |
| `COc1cc(F)c(CN2CCOCC2CO)c(F)c1` (stereo unspecified) | 3.995 |
| `Cc1cc[nH]c(=O)c1` | 3.071 |
| `O=C(NC1CCN(C2CCOCC2)CC1)c1cnc[nH]1` | 10.15 |